Reference: publication PMC12783670
Results are given in words; binding and its absence hold for the method and conditions named. Binding seen in cells or lysates may run through a third protein. Some results given as binding are weak or reduced against the parent protein; the word gives no strength.

Sequences of proteins named here, by UniProt entry; tags and fusion partners are left off.
UniProt P50750: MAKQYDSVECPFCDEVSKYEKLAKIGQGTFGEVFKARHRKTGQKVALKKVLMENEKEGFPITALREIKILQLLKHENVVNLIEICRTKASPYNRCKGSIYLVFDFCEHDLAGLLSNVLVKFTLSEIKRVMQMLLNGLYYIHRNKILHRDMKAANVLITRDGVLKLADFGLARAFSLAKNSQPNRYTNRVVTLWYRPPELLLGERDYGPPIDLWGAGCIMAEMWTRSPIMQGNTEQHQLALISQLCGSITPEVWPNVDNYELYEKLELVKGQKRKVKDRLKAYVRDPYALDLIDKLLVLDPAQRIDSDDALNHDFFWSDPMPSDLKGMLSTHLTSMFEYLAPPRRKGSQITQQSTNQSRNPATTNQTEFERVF
UniProt P23771: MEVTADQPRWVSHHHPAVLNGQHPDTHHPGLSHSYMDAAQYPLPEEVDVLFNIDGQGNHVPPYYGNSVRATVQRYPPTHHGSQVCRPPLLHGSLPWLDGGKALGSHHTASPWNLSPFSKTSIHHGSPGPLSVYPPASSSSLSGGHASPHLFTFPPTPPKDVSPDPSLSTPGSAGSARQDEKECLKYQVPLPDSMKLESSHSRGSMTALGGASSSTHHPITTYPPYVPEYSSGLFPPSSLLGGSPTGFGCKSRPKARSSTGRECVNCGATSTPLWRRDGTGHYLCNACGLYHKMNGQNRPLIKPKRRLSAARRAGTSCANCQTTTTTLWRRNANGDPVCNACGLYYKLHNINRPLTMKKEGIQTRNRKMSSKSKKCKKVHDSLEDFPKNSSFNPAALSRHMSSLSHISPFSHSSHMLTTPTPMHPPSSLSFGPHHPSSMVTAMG

Key:
[1] = molecular target: cyclin dependent kinase 9 (CDK9), endogenous (human (endogenous in H9 and MyLa CD4)) (UniProt P50750); assay: co-IP; endogenous proteins in H9 and MyLa CD4 cell lines; CDK9 immunoprecipitation, immunoblot (Fig. 4B)
[2] = molecular target: GATA-binding protein 3 (GATA-3), endogenous (human (endogenous in H9 and MyLa CD4)) (UniProt P23771); assay: co-IP; endogenous proteins in H9 and MyLa CD4 cell lines; GATA-3 immunoprecipitation, immunoblot (Fig. 4A)

Substance	binding [1]	binding [2]
GATA-binding protein 3 (GATA-3), endogenous (from UniProt P23771 1-443)	binds	–
cyclin dependent kinase 9 (CDK9), endogenous (from UniProt P50750 1-372) (enzyme)	–	binds
